From PubChem BioAssay AID2685 (National Center for Advancing Translational Sciences (NCATS), 2010)
This is one part of the list. These are further read-outs of the screen, such as a control signal, another cell line or another target. No call is given for them. The list favours compounds with an active or inconclusive main result. Words in brackets tell the shape of the fitted curve; partial curves, single points and poor fits give uncertain potencies.

Assay: qHTS Assay for Lipid Storage Modulators in Drosophila S3 Cells;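 as to cell number change: cells counted by Cell Tracker Red CMTPX staining in the red channel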
Conditions: BODIPY lipid droplet fluorescence, 18-24 h; for cell number change: measured here: cell count max response, cells fed with added oleic acid
How it was run: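 Drosophila S3 cells got compounds at several concentrations plus oleic acid (400 uM solution). Laser-scanning cytometry with 488 nm excitation read lipid droplets at 500-530 nm and cells at 575-640 nm. Percent activity was relative to 20 uM Triacsin C.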

[1] = measured here: cell number channel AC50, cells fed with added oleic acid
[2] = measured here: lipid fluorescence (Fed channel) AC50, cells fed with added oleic acid

SMILES	cell number change	AC50 [1]	AC50 [2]
O=C(NCC1CCCO1)C1CCC(=O)N1Cc1ccccc1Cl (configuration not stated)	-38%	10.3 µM [falling, partial curve, poor fit]	–
O=C(COC(=O)/C=C/c1ccccc1[N+](=O)[O-])Nc1ccc(OCc2ccccc2)cc1	–	1.64 µM [falling, partial curve, poor fit]	–
O=S(=O)(NCCc1csc(-c2cccnc2)n1)c1ccc(Cl)s1	11.2%	–	6.51 µM [rising, partial curve, poor fit]
COc1ccc(CCNC(=O)C2CCN(S(=O)(=O)N3CCC4(CC3)OCCO4)CC2)cc1OC	12.6%	–	10.3 µM [rising, single point]
CCc1ccc(N(CC(=O)Nc2nc3ccc(C)cc3s2)S(=O)(=O)c2c(C)noc2C)cc1	8.13%	–	0.82 µM [falling, single point]
O=C(O)CN1C(=O)/C(=C\c2cc([N+](=O)[O-])ccc2OCc2ccccc2Cl)SC1=S	11.3%	–	6.51 µM [falling, single point]
O=C(CN1C(=O)C2C3C=CC(C3)C2C1=O)N1CC(=O)N(CCc2ccccc2)C(=O)C1 (configuration not stated)	3.76%	0.116 µM [falling, full curve, poor fit]	6.51 µM [falling, single point]
O=C(CSc1nnnn1C1CCCCC1)NCc1cccs1	23.6%	–	0.00461 µM [rising, full curve, poor fit]
COc1ccc(S(=O)(=O)N2CCCCCC2)cc1C(=O)N(C)CCOc1ccc(Cl)cc1	–	–	1.3 µM [falling, partial curve]
CC(=O)c1ccc(Nc2c([N+](=O)[O-])ccc3nonc23)cc1	61.1%	29.1 µM [rising, single point]	29.1 µM [falling, single point]
CCC(=O)Nc1ccc(NC(=O)CSc2nnc(C(C)C)n2C)cc1	7.47%	–	–
C/C(=N\NC(=O)CNc1cccc(Cl)c1C)c1cccs1	-33.7%	8.2 µM [falling, partial curve]	23.1 µM [falling, single point]
CCc1noc(C)c1C(=O)OCC(=O)NC(=O)c1ccccc1	1.49%	–	0.13 µM [falling, full curve, poor fit]
CCN1CCN(C(=O)CN(C)S(=O)(=O)c2ccc(OC)c(C)c2)CC1	7.72%	–	0.461 µM [falling, single point]
CN1C(=O)/C(=C\c2cc(Br)cs2)c2ccccc21	32.1%	8.2 µM [rising, partial curve, poor fit]	–
CCCCN(C(=O)CCC(=O)Nc1cc(C)on1)C(C(=O)NC1CCCC1)c1ccccc1C (configuration not stated)	13.3%	–	–
CCOC(=O)CSc1nnc(CNC(=O)c2ccccc2OC)n1-c1ccc(OC)cc1	0.833%	–	2.91 µM [falling, single point]
CN(C)C(CNC(=O)c1ccc(NS(=O)(=O)c2ccc(F)cc2)cc1)c1ccco1 (configuration not stated)	23.7%	–	–
CC(OC(=O)CCc1nc(=O)c2ccccc2n1C)C(=O)NCc1ccc2c(c1)OCO2 (configuration not stated)	-12.9%	–	0.651 µM [rising, single point]
Cc1ccccc1NC(=O)NC1CCS(=O)(=O)C1 (configuration not stated)	1.32%	–	–
CNC(=S)N1N=C(c2ccccc2)CC1c1ccc(Br)cc1 (configuration not stated)	6.59%	–	0.103 µM [rising, full curve, poor fit]

Structural class, the compounds so far with nitrogen in an aromatic ring (9)
SMILES	cell number change	AC50 [1]	AC50 [2]
O=S(=O)(NCCc1csc(-c2cccnc2)n1)c1ccc(Cl)s1	11.2%	–	6.51 µM [rising, partial curve, poor fit]
CCc1ccc(N(CC(=O)Nc2nc3ccc(C)cc3s2)S(=O)(=O)c2c(C)noc2C)cc1	8.13%	–	0.82 µM [falling, single point]
O=C(CSc1nnnn1C1CCCCC1)NCc1cccs1	23.6%	–	0.00461 µM [rising, full curve, poor fit]
CC(=O)c1ccc(Nc2c([N+](=O)[O-])ccc3nonc23)cc1	61.1%	29.1 µM [rising, single point]	29.1 µM [falling, single point]
CCC(=O)Nc1ccc(NC(=O)CSc2nnc(C(C)C)n2C)cc1	7.47%	–	–
CCc1noc(C)c1C(=O)OCC(=O)NC(=O)c1ccccc1	1.49%	–	0.13 µM [falling, full curve, poor fit]
CCCCN(C(=O)CCC(=O)Nc1cc(C)on1)C(C(=O)NC1CCCC1)c1ccccc1C (configuration not stated)	13.3%	–	–
CCOC(=O)CSc1nnc(CNC(=O)c2ccccc2OC)n1-c1ccc(OC)cc1	0.833%	–	2.91 µM [falling, single point]
CC(OC(=O)CCc1nc(=O)c2ccccc2n1C)C(=O)NCc1ccc2c(c1)OCO2 (configuration not stated)	-12.9%	–	0.651 µM [rising, single point]

Reformatted: two of the compounds above.
O=C(NCC1CCCO1)C1CCC(=O)N1Cc1ccccc1Cl (configuration not stated)
  cell number change: -38%
  AC50 [1]: 10.3 µM [falling, partial curve, poor fit]
CCN1CCN(C(=O)CN(C)S(=O)(=O)c2ccc(OC)c(C)c2)CC1
  cell number change: 7.72%
  AC50 [2]: 0.461 µM [falling, single point]

Following part

SMILES	cell number change	AC50 [1]	AC50 [2]
COc1ccc(OC)c(N=c2oc3c(OC)cccc3cc2C(=O)NCc2ccco2)c1	-12.2%	3.66 µM [falling, single point]	–
CC(C)OC(=O)CC(=O)CSc1nc2c(cc1C#N)CCCCCC2	5.31%	–	–
COc1cc2ccccc2cc1C(=O)Nc1ccc(N2CCN(C)CC2)cc1	21.3%	–	18.4 µM [falling, single point]
COc1cc(C(=O)Nc2ccc(NC(=O)C3CC3)nc2)cc(OC)c1OC	1.53%	–	4.11 µM [rising, single point]
CC(CC(=O)N1CCN(c2ccccc2F)CC1)c1ccccc1 (configuration not stated)	7%	–	0.58 µM [falling, partial curve, poor fit]
Cc1ccsc1/C=C1/SC(=O)N(CC(=O)N2CCCC2)C1=O	-9.52%	0.00461 µM [falling, full curve, poor fit]	–
Cc1ccc(S(=O)(=O)NCC(=O)OC(C)C(=O)c2ccccc2)cc1 (configuration not stated)	99%	20.6 µM [rising, partial curve]	29.1 µM [rising, partial curve]
CC(OC(=O)CCC(=O)c1ccc(Cl)s1)C(=O)NC1(C#N)CCCCC1 (configuration not stated)	40.9%	29.1 µM [rising, single point]	20.6 µM [rising, single point]
O=C(NCc1ccc(F)cc1)c1ccc(S(=O)(=O)N2CCCCC2)cc1	18.5%	–	29.1 µM [rising, single point]
CCOC(=O)c1[nH]c(C)c(C(=O)OC(C)C(=O)Nc2ncc(Cl)cc2Cl)c1C (configuration not stated)	-44.1%	2.91 µM [falling, full curve]	–
C=CCn1cc(C(=O)N2CCN(c3ccccc3)CC2)c(=O)c2cc(S(=O)(=O)N3CCCC3)ccc21	-18.9%	–	–
CC1CC(C)CN(CCC(=O)Nc2ccc(Br)cc2)C1 (configuration not stated)	20.2%	–	0.146 µM [rising, full curve, poor fit]
O=C(CN1C(=O)NC2(CCCCC2)C1=O)N1CCOCC1	-2.14%	–	0.00517 µM [falling, full curve, poor fit]
Cc1ccc(C(N)=S)c(C)c1	-14.3%	–	2.06 µM [falling, full curve, poor fit]
CN1CCN(c2ccccc2NC(=O)c2ccc(N3CCOCC3)c([N+](=O)[O-])c2)CC1	-34.2%	–	–
COc1ccc2cc3c(N)c(C(=O)N4CCCC4)sc3nc2c1	-14.2%	–	–
C#CCN(C)CCCOc1ccc(Cl)cc1Cl	-32.6%	29.1 µM [falling, single point]	23.1 µM [falling, single point]
CN(C)S(=O)(=O)c1cccc(C(=O)NCC2CCCCC2)c1	10.5%	–	–
Cc1cc(C)n(-c2ccc(C(=O)OCC(=O)N(CC(C)C)C3CCS(=O)(=O)C3)cc2)n1 (configuration not stated)	-11.2%	–	–
O=C(Nc1ccccc1C(=O)NCc1ccco1)c1ccco1	12.9%	–	20.6 µM [rising, partial curve]
CC(C)(C)S(=O)(=O)/C(C#N)=N/Nc1ccc(Cl)cc1	-20.3%	–	29.1 µM [falling, single point]

SMILES	cell number change	AC50 [1]	AC50 [2]
CCOC(=O)C1CCCN(CCC(=O)Nc2ccc(F)c(F)c2)C1 (configuration not stated)	25.1%	–	6.51 µM [falling, single point]
O=C(COC(=O)CNS(=O)(=O)c1ccc(F)c(F)c1F)NCCc1ccccc1	41.1%	29.1 µM [rising, single point]	29.1 µM [rising, single point]
CCOc1ccc2nc(SCC(=O)c3ccc(Cl)s3)sc2c1	45.1%	18.4 µM [rising, single point]	–
CC(=O)C1=C(C)N(CC2CC2)C(=O)N[C@H]1c1ccccc1	-21%	–	6.51 µM [falling, single point]
Cc1ccc(/C=N/N2CCN(C3c4ccccc4-c4ccccc43)CC2)s1	3.14%	–	0.517 µM [rising, full curve, poor fit]
COc1ccc(CCNC(=O)CSc2ccccn2)cc1	-3.38%	0.00517 µM [falling, full curve, poor fit]	0.00461 µM [falling, full curve, poor fit]
Cc1nc(N2CCN(c3ccccn3)CC2)c2c(C)c(C(=O)Nc3ccc(Br)cc3C)sc2n1	130%	20.6 µM [rising, single point]	–
Cn1c(=O)c2c(nc(Sc3ncccn3)n2Cc2ccc(Cl)cc2)n(C)c1=O	-69.3%	18.4 µM [falling, single point]	20.6 µM [falling, single point]
CCOC(=O)Cn1c(=N)n(CCOc2ccc(OC)cc2)c2ccccc21	21.3%	–	–
Cc1ccccc1C(=O)O/N=C(\c1ccccc1)c1ccccn1	2.33%	–	18.4 µM [rising, single point]
Cc1cc(C)n(C(=O)CN2C(=O)COc3ccccc32)n1	-19.8%	–	–
O=C(CC12CC3CC(CC(C3)C1)C2)NCC(=O)N1CCc2ccccc2C1	77.8%	18.4 µM [rising, single point]	6.51 µM [rising, single point]
CCOC(=O)c1ccc(S(=O)(=O)N2CCC(C(=O)NCC3CCCCC3)CC2)cc1	-26.1%	–	–
O=C(c1cccc(C(F)(F)F)c1)C1CCCN(C(=O)/C=C/c2cnc[nH]2)C1 (configuration not stated)	0.85%	–	3.66 µM [rising, partial curve]
Cc1nc(/C(N)=N/OC(=O)c2ccc(Cl)cc2)c(C(F)(F)F)o1	-40.9%	18.4 µM [falling, single point]	29.1 µM [falling, single point]
O=C(CSc1nc(=O)n2ccccc2n1)Nc1cccc2ccccc12	–	–	2.31 µM [rising, partial curve]
Cn1c(CSc2nc3ccccc3s2)nnc1SCC(=O)NCCN1CCOCC1	9.21%	–	0.411 µM [rising, single point]
CCCn1c(=S)[nH]c2cc(C(=O)N(CCO)Cc3ccccc3)ccc2c1=O	-25.5%	–	5.8 µM [falling, full curve]
COc1ccc(CNC(=O)N2CCN(c3cccc(C)c3C)CC2)cc1OC	28.8%	0.00461 µM [rising, full curve, poor fit]	–
